{
  "sequences": {"note": "Protein sequences, listed by entry. Tags and fused reporters are not part of them.", "UniProt Q0JBA9, entry or part of it": "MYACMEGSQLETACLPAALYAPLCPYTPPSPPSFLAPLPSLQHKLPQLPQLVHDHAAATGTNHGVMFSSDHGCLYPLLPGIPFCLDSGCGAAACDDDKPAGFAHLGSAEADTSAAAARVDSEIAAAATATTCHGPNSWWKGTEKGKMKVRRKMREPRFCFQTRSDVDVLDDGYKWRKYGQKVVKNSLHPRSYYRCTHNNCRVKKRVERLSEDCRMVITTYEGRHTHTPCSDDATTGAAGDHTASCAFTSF"},
  "source": "paper PMC7819943",
  "about": "“Rice protein-binding microarrays: a tool to detect cis-acting elements near promoter regions in rice”",
  "note": "The other results are listed elsewhere or left out.",
  "data": [
    {"biological_target": "OsWRKY34 (Oryza sativa, UniProt Q0JBA9 1-250)", "assay": "protein-binding microarray (RPBM); PBS, 2% BSA, 51.3 ng/ul salmon testes DNA, 50 uM zinc acetate, 200 nM TF, 25 C, 1 h; high values mean tight binding", "conditions": "protein: recombinant; tags: N-terminal polyhistidine and DsRed monomer fusion (pET32a); label: CyDye5-dUTP incorporated in the synthesized complementary strand; 3' TTTTT single-stranded linker to array surface; dsDNA, one strand shown", "in_short": "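The binding signal is fluorescence intensity per array feature (arbitrary units). Readings came from an Axon 4000B scanner after a washed, 2% BSA-blocked, double-stranded custom Agilent array had been incubated for 1 h at 25 °C with 200 nM protein and 50 µM zinc acetate. The protein was a Ni–NTA-purified transcription factor fused N-terminally to polyhistidine and DsRed, expressed in E. coli BL21-CodonPlus.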", "values": [
      {"sequence": "GGGCCTCTCTCTCTCTCCGTCTCTCTGGCAGTTGGGCCCCCGGAGTCACCTAGTGCAG", "binding signal": "8880 fluorescence intensity (a.u.)"},
      {"sequence": "GTGGTGGTGTTTGGATGAACAGTGAGCAGGCAAATGCTCTCGGAGTCACCTAGTGCAG", "binding signal": "8110 fluorescence intensity (a.u.)"},
      {"sequence": "TGGATGCCTTCCATGTTGACTTTGTTTTGTATAGACCATACGGAGTCACCTAGTGCAG", "binding signal": "9170 fluorescence intensity (a.u.)"},
      {"sequence": "CGCCACCGTACCGCTGCCCGCGCCGAACCCTCGCCATTTCCGGAGTCACCTAGTGCAG", "binding signal": "9490 fluorescence intensity (a.u.)"},
      {"sequence": "CAAGTTTATGTTCGTCTCGCCTTTGTTTAATTTCTCTTTCCGGAGTCACCTAGTGCAG", "binding signal": "12000 fluorescence intensity (a.u.)"},
      {"sequence": "TGCTGGCTGAATACTACTACCATGTCATCTATAGCCATCACGGAGTCACCTAGTGCAG", "binding signal": "8760 fluorescence intensity (a.u.)"},
      {"sequence": "GGATAAAAGTCAGGAAGGATCGGGGTGTATAACAAACAAACGGAGTCACCTAGTGCAG", "binding signal": "8430 fluorescence intensity (a.u.)"},
      {"sequence": "CATTTTTAAATCCTAACCATTCATTCTCCCTTTTCCATTTCGGAGTCACCTAGTGCAG", "binding signal": "9100 fluorescence intensity (a.u.)"},
      {"sequence": "ACGCACTGTCAACCCATGACGCCACTGCTACGGTCTTCCGCGGAGTCACCTAGTGCAG", "binding signal": "8240 fluorescence intensity (a.u.)"},
      {"sequence": "TGTCTCAACAACAAGCTCTGTGTGCTGCAGTGTCATTCCACGGAGTCACCTAGTGCAG", "binding signal": "8160 fluorescence intensity (a.u.)"},
      {"sequence": "AAATTTGAAGTAGTTTGACTTTGACCAAAGTCAAAACATCCGGAGTCACCTAGTGCAG", "binding signal": "17600 fluorescence intensity (a.u.)"},
      {"sequence": "TTGAGCAGCCTGGATTTTGTTGATCTCTCACACAACACACCGGAGTCACCTAGTGCAG", "binding signal": "9680 fluorescence intensity (a.u.)"},
      {"sequence": "GTAGGGCTGCTTGCGCCGCTGTGTTTTTTGTGCTTTGGTTCGGAGTCACCTAGTGCAG", "binding signal": "8550 fluorescence intensity (a.u.)"},
      {"sequence": "ACTTCGTGGGGTGCCTCACTGCCTCCTGCAGTACTAATATCGGAGTCACCTAGTGCAG", "binding signal": "9500 fluorescence intensity (a.u.)"},
      {"sequence": "TTTGCTCATTTATTCACTTGCCACATTATTTTTTAGGCAACGGAGTCACCTAGTGCAG", "binding signal": "13900 fluorescence intensity (a.u.)"},
      {"sequence": "TCGTTGTCTAGCTGGAGGCTTTGAGCTCCTCATGTGCGTTCGGAGTCACCTAGTGCAG", "binding signal": "8560 fluorescence intensity (a.u.)"},
      {"sequence": "AGTCTCTATATGAACCTCTAAGCAATTCCCATCACATTTTCGGAGTCACCTAGTGCAG", "binding signal": "8320 fluorescence intensity (a.u.)"},
      {"sequence": "GATGCCGCCCGCCGTCAACCTCGCCGCCAACCGCGCGCCGCGGAGTCACCTAGTGCAG", "binding signal": "9850 fluorescence intensity (a.u.)"},
      {"sequence": "ACTCCGCCGTGCGCATCCTCTCTCGCTCGCTCCTCACTCGCGGAGTCACCTAGTGCAG", "binding signal": "10300 fluorescence intensity (a.u.)"},
      {"sequence": "TTCCCATTTCGCCGATCCCACCCACGGCGGCGCCGCCACCCGGAGTCACCTAGTGCAG", "binding signal": "8050 fluorescence intensity (a.u.)"},
      {"sequence": "ATCTGGTTTTGTGGTTTAGGGTCATGGATTAGATTTCGACCGGAGTCACCTAGTGCAG", "binding signal": "10300 fluorescence intensity (a.u.)"},
      {"sequence": "ACCACTCCTTCTAAAACCCGGAATTTCCCTCCTTTCGTCTCGGAGTCACCTAGTGCAG", "binding signal": "8850 fluorescence intensity (a.u.)"},
      {"sequence": "AATGTTTGACGCCGTTGACTTTTTTAAACATGTTTGACCACGGAGTCACCTAGTGCAG", "binding signal": "42500 fluorescence intensity (a.u.)"},
      {"sequence": "CTCGCAAGCATTCGCACCGCATTCCTTCGTCTGTTGCTGCCGGAGTCACCTAGTGCAG", "binding signal": "8150 fluorescence intensity (a.u.)"},
      {"sequence": "CGAGCTCCACCACCACCACCACCACCACCTCCTCCTCCTCCGGAGTCACCTAGTGCAG", "binding signal": "9950 fluorescence intensity (a.u.)"},
      {"sequence": "ATAATTTTGCTTGTGTGGTTAGTTTGTTTGGGCCGCTTTCCGGAGTCACCTAGTGCAG", "binding signal": "10800 fluorescence intensity (a.u.)"},
      {"sequence": "CTCGCTTGCTTACCATTAACCACAGTAACAAGTGCACCACCGGAGTCACCTAGTGCAG", "binding signal": "8090 fluorescence intensity (a.u.)"},
      {"sequence": "TCTAAACCGCAACAATGGTAAATTTACCCGGTCCAAATTGCGGAGTCACCTAGTGCAG", "binding signal": "9380 fluorescence intensity (a.u.)"},
      {"sequence": "CGCGTGCTCCGTTTCTGCCTTCCGCTTTCCATCGCGCACGCGGAGTCACCTAGTGCAG", "binding signal": "13500 fluorescence intensity (a.u.)"},
      {"sequence": "CTCTGTTCATCCACGCTACCTCGCGTCCCTCTCTCCTCTCCGGAGTCACCTAGTGCAG", "binding signal": "10100 fluorescence intensity (a.u.)"},
      {"sequence": "CCTTGCCGCGTGTCCACCTGCCCTTTCATCGACACCAACACGGAGTCACCTAGTGCAG", "binding signal": "8400 fluorescence intensity (a.u.)"},
      {"sequence": "TTTCCACCGTTTGGCGTTTGGGTAGGGTTGGGATGGGATGCGGAGTCACCTAGTGCAG", "binding signal": "17200 fluorescence intensity (a.u.)"},
      {"sequence": "GCCTCAAGTAATTCACAGTTTTCTGCAGCCGACGACCGCTCGGAGTCACCTAGTGCAG", "binding signal": "8330 fluorescence intensity (a.u.)"},
      {"sequence": "CCTTCCTTGGCTGCCCGTGAGCTTCCCGCGCGCGCCATGGCGGAGTCACCTAGTGCAG", "binding signal": "8210 fluorescence intensity (a.u.)"},
      {"sequence": "ACCCAACTGCAGATAACCACCAGGACCAGACCATCAGCGCCGGAGTCACCTAGTGCAG", "binding signal": "9480 fluorescence intensity (a.u.)"},
      {"sequence": "TTTTTCACTTTGCTCTAATCCAAATCTTTTTTTTCTCTCTCGGAGTCACCTAGTGCAG", "binding signal": "9220 fluorescence intensity (a.u.)"},
      {"sequence": "TACCTTTCGTTAATCCACTCACCAACTACACACTGACTGACGGAGTCACCTAGTGCAG", "binding signal": "8860 fluorescence intensity (a.u.)"},
      {"sequence": "TTTCGTCAGCTGATCGTATATTGACCTTTTCTGTCTCTGTCGGAGTCACCTAGTGCAG", "binding signal": "10500 fluorescence intensity (a.u.)"},
      {"sequence": "GTTGCCTCTCTCTCTCTCTCTCTCTCTCTCTTGCAGAACGCGGAGTCACCTAGTGCAG", "binding signal": "8930 fluorescence intensity (a.u.)"},
      {"sequence": "GGAGGCCCATCACCGTCTCGCACTTTCTCGCTTCTAGTCCCGGAGTCACCTAGTGCAG", "binding signal": "9130 fluorescence intensity (a.u.)"},
      {"sequence": "CTCGTTTTTACGCGTGATTTCGTCGTCTTGTTGCTGCTGACGGAGTCACCTAGTGCAG", "binding signal": "9260 fluorescence intensity (a.u.)"},
      {"sequence": "GTCTTATATTGCTTTTGGTTCGATTGTGGGCTTCGCGGGCCGGAGTCACCTAGTGCAG", "binding signal": "11300 fluorescence intensity (a.u.)"}
    ]}
  ]
}
